The list shows a part of the results.
Assays:
Test in all cases: log2 fold change, soluble protein after heating vs DMSO (PISA); higher = thermal stabilisation; K562 cells, 10 uM, 30 min; active = over 0.2 and 3.5 SD of the protein, either way, in both replicates (recomputed)
erlotinib = compound: C#Cc1cccc(Nc2ncnc3cc(OCCOC)c(OCCOC)cc23)c1 [erlotinib]
Summary of the method: (§1)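 Soluble protein was defined as the supernatant after 21,000xg for 90 min. It came from K562 cells at 2×10^6 cells/mL given 10 μM compound for 30 min, heated in aliquots for 3 min across 48°C-58°C, pooled, and extracted in PBS with 0.5% NP-40 at 4°C, and was quantified by TMTpro 16plex LC-MS/MS with equalised channel sums. Thermal stability against control samples, from duplicates, is reported as log2 fold change.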

Protein sequences, listed by entry. Tags and fused reporters are not part of them. Lines headed by an entry give the natural chain unless they say otherwise; changes in a name come on top.
UniProt Q86YB8: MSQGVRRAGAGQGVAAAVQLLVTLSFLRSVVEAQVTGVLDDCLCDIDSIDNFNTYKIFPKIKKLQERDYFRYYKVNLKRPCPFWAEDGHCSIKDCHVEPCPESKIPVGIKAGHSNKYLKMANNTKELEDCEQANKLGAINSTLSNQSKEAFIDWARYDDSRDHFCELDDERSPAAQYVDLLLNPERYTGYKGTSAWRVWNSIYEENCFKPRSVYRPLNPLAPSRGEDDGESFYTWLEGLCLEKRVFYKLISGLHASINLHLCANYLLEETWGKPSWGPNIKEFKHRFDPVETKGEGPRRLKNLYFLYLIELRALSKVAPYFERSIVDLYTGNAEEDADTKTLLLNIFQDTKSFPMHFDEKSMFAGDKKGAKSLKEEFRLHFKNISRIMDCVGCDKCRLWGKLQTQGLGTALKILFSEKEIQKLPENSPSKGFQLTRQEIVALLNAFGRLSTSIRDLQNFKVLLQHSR
UniProt Q9H501: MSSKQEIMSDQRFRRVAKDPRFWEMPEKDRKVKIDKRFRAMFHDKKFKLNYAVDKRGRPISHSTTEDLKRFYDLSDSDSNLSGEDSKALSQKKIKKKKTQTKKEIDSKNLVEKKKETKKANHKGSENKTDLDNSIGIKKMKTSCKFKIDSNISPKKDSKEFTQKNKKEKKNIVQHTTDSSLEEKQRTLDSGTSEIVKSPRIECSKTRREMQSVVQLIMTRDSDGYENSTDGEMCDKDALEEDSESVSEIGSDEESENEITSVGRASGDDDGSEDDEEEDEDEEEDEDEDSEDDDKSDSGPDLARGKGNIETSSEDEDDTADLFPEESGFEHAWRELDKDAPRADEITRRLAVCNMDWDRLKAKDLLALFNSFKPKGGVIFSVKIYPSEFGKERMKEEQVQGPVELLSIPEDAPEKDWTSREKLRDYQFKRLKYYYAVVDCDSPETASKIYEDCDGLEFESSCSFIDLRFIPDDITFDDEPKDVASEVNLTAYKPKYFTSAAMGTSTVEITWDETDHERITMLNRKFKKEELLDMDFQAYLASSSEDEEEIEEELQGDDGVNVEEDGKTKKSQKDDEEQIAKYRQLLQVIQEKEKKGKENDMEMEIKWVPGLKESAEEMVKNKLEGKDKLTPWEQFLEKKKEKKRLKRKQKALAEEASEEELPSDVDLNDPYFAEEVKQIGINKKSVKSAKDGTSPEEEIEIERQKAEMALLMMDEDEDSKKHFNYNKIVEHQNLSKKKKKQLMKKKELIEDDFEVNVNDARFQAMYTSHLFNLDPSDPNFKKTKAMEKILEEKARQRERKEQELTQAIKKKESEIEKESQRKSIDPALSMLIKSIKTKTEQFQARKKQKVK
UniProt P00740, whole entry, looked up: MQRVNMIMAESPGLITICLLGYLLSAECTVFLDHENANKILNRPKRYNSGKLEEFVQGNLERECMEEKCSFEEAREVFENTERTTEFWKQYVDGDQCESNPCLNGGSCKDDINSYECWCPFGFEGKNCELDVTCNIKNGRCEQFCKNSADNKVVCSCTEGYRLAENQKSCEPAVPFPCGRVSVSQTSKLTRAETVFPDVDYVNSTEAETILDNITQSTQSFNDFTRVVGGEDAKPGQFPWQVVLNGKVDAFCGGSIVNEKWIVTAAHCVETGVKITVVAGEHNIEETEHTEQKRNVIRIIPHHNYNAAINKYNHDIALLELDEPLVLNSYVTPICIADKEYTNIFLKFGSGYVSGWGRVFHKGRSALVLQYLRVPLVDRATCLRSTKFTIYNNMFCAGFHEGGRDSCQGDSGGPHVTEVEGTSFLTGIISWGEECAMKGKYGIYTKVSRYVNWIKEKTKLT
UniProt P07992: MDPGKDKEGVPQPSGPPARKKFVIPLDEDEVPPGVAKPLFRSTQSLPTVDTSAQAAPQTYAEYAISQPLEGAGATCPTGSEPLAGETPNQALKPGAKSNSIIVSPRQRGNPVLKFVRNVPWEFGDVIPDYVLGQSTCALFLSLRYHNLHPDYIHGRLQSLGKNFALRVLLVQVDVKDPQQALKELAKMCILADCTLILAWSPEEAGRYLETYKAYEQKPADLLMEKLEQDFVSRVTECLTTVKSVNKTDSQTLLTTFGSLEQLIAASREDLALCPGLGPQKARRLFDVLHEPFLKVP
UniProt P05413, whole entry, looked up: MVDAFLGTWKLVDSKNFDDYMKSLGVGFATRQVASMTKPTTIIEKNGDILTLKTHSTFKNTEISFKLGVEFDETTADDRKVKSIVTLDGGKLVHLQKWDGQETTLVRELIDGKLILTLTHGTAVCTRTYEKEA
UniProt Q9Y2C4: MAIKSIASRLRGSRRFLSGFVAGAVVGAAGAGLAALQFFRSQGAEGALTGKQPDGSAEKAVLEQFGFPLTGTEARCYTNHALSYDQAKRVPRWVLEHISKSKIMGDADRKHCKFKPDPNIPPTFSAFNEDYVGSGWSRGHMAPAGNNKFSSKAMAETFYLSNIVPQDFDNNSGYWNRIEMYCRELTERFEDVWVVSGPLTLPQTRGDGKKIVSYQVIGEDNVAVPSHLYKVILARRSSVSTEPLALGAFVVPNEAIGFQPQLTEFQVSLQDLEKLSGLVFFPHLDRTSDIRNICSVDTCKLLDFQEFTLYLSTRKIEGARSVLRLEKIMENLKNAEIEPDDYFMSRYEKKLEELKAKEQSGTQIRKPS
UniProt Q9BQ89: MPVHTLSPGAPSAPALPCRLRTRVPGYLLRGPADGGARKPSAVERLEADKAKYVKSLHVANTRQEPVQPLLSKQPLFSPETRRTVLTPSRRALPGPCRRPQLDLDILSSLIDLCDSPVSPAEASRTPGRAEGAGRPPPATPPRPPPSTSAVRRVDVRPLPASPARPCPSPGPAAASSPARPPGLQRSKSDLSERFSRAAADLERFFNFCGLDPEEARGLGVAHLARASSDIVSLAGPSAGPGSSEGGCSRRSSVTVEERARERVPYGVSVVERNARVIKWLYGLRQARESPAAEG
UniProt P05160: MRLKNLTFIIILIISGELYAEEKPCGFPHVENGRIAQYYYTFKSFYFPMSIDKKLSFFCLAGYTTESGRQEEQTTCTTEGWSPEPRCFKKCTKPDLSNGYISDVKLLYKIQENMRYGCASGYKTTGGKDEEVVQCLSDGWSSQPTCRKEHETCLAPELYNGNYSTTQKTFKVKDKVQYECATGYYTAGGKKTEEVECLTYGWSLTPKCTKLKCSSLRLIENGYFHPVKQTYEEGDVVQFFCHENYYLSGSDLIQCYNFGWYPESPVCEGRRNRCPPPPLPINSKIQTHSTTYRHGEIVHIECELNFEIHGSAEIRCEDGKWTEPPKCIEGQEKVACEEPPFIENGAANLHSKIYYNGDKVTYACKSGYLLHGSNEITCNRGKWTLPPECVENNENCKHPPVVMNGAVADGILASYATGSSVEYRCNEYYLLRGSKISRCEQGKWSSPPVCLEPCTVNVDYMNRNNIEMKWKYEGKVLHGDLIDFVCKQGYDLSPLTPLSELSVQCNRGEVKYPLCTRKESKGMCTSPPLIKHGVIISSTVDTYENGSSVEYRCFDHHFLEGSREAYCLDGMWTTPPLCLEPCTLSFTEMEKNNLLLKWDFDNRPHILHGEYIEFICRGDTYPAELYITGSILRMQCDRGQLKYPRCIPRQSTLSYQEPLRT
UniProt Q8IXS8: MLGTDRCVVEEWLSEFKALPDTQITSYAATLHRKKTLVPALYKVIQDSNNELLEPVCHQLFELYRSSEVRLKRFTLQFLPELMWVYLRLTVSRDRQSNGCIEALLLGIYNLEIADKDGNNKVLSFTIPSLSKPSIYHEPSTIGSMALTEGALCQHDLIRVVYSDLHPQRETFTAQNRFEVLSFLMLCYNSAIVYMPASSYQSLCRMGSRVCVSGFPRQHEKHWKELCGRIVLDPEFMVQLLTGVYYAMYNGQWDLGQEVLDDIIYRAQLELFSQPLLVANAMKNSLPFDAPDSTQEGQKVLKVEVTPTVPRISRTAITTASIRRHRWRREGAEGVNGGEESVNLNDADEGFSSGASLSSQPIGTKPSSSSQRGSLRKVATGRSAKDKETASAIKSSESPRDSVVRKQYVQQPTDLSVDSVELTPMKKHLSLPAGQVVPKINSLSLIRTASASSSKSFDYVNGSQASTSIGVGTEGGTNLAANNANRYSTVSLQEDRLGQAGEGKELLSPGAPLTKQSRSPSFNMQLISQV
UniProt Q9H2F5, whole entry, looked up: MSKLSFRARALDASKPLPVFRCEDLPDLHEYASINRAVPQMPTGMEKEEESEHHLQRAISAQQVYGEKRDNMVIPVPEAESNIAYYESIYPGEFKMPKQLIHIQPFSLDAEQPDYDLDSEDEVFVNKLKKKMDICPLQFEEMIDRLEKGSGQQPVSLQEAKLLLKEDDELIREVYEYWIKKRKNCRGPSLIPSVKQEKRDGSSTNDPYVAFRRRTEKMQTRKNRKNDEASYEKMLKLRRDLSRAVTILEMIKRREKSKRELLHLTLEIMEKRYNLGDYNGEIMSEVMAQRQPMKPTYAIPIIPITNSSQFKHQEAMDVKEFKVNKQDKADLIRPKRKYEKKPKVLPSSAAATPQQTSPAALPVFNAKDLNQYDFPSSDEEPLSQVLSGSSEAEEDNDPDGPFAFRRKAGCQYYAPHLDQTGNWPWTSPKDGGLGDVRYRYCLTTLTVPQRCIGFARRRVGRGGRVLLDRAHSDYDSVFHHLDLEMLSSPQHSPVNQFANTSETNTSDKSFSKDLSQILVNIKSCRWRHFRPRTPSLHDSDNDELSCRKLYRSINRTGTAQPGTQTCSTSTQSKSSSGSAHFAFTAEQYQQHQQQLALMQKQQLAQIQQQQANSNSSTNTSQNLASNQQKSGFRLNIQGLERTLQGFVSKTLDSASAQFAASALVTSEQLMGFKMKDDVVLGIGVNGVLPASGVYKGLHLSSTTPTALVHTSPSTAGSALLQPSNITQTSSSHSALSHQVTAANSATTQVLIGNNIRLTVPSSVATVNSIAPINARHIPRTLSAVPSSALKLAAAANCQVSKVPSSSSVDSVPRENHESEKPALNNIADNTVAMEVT
UniProt P00488: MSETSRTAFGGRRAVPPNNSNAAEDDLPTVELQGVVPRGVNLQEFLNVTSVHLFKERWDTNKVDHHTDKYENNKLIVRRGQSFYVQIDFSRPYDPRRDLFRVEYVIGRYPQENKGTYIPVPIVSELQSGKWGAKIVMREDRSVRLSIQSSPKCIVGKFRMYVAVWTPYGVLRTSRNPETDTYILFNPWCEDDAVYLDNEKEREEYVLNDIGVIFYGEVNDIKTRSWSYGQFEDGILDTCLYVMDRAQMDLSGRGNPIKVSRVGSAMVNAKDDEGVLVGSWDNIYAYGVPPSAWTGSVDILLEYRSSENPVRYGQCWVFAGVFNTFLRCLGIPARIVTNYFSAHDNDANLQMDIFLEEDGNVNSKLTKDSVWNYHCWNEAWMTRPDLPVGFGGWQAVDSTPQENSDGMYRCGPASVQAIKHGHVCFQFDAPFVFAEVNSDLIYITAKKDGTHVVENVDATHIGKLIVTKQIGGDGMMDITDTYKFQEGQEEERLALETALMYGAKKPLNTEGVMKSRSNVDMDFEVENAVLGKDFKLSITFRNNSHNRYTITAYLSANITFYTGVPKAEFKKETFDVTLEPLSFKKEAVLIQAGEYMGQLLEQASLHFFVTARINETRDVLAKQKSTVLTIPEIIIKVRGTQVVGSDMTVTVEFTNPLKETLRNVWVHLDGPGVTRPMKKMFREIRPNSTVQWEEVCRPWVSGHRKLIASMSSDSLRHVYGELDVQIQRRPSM
UniProt Q9H098: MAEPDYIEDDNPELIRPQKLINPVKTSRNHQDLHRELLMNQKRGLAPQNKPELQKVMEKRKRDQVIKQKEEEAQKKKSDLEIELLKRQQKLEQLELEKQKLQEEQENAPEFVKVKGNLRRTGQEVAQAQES
UniProt Q5T8I3: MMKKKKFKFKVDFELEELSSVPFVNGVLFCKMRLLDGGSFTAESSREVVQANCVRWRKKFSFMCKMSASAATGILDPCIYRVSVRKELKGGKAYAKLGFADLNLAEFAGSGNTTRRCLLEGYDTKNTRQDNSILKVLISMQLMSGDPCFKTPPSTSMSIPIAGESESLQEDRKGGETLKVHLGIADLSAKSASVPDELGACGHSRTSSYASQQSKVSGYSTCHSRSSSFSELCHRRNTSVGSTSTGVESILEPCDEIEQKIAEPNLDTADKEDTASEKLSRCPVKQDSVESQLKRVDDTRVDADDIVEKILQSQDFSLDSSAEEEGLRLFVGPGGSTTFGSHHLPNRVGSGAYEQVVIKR
UniProt Q86X53: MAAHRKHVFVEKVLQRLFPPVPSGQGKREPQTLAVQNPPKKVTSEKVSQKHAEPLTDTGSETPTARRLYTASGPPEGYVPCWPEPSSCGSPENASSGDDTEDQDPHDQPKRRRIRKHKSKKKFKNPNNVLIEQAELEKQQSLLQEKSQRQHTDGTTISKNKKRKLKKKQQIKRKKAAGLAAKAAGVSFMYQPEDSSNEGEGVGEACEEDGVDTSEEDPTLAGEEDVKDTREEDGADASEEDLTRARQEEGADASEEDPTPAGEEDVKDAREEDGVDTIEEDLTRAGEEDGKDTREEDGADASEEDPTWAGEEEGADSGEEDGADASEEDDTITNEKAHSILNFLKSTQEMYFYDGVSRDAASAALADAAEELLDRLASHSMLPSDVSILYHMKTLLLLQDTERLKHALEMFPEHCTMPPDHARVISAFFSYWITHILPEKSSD

[1] = compound: C/C(=N\NC(=O)C1=CC(=CC=C1)S(=O)(=O)N2CCOCC2)/C3=C(C=CC(=C3)Cl)O
Summary of the method: as §1

[2] = compound: C1=CC(=C(C=C1Cl)C2=NC3=NC=CN=C3C(=N2)NC4=CC=NC=C4)F
Summary of the method: as §1

[3] = compound: C1=CC(=CC=C1C2=NC3=C(N2)C=C(C=C3)C(=O)N)OC4=CC=C(C=C4)Cl
Summary of the method: as §1

[4] = compound: C1=CC2=C(C=CC(=C2)/C=C\3/C(=O)NC(=NCC4=CC=CS4)S3)N=C1
Summary of the method: as §1

[5] = compound: C1=CC2=NC=CN=C2C=C1/C=C/3\C(=O)NC(=O)S3
Summary of the method: as §1

[6] = compound: C1=CC=C2C(=C1)C3=NNC4=CC=CC(=C43)C2=O
Summary of the method: as §1

[7] = compound: C1=CC=C(C=C1)C2=NC(=C(N2)C3=CC=NC=C3)C4=CC(=C(C=C4)Cl)O
Summary of the method: as §1

[8] = compound: C1CCN(C1)C(=O)NC2=CC=CC(=C2)NC3=NC=C(C(=N3)NCCC4=CN=CN4)Br
Summary of the method: as §1

[9] = compound: C1CN(CCC1(CC2=CC=C(C=C2)Cl)N)C3=NC=NC4=C3C=CN4
Summary of the method: as §1

Measured: log2 fold change

EWSR1 (UniProt H7BY36)
inactive: erlotinib 0.118 | [1] -0.025 | [2] 0.049 | [3] -0.001 | [4] -0.043 | [5] -0.047 | [6] -0.08

ERO1B (UniProt Q86YB8)
inactive: erlotinib 0.051 | [1] -0.008 | [2] -0.233 | [3] -0.052 | [4] 0.056 | [5] 0.071 | [6] 0

ESF1 (UniProt Q9H501)
inactive: [5] 0.696 | [7] 0.175

F9 (UniProt P00740)
inactive: [1] -0.081 | [4] 0.153 | [5] 0.123 | [6] -0.271 | [8] -0.035 | [9] 0.277

ERCC1 isoform 3 (UniProt P07992)
inactive: [7] -0.028

EPG5 (UniProt Q9HCE0)
inactive: [2] -0.375 | [7] 0.051

Two successive records from above:
ERO1B (UniProt Q86YB8)
inactive: erlotinib 0.051 | [1] -0.008 | [2] -0.233 | [3] -0.052 | [4] 0.056 | [5] 0.071 | [6] 0

ESF1 (UniProt Q9H501)
inactive: [5] 0.696 | [7] 0.175

The list goes on.

FABP3 (UniProt P05413)
inactive: [1] -0.221 | [4] 0.025 | [6] -0.175

EXOG (UniProt Q9Y2C4)
inactive: [1] -0.083 | [4] -0.019 | [7] 0.052 | [6] 0.015 | [8] -0.159 | [9] 0.122

EPN1 isoform 3 (UniProt Q9Y6I3)
inactive: [5] 0

F2R (UniProt P25116)
inactive: [1] 0.008 | [4] -0.004 | [6] -0.095 | [8] -0.059 | [9] -0.054

FAM110A (UniProt Q9BQ89)
inactive: [2] -0.131

F13B (UniProt P05160)
inactive: [8] -0.053 | [9] 0.137

EPHX2 (UniProt E5RI53)
inactive: [2] 0.037 | [5] -0.082

EPHA6 (UniProt Q9UF33)
inactive: [1] -0.58 | [2] -0.287 | [4] 0.579 | [5] -0.249 | [7] -0.5 | [6] -0.396 | [8] 0.054 | [9] -0.062

FAM126B (UniProt Q8IXS8)
inactive: [1] -0.129 | [4] 0.193 | [6] 0.207

FAM193B (UniProt Q96PV7)
inactive: [1] -0.127 | [2] -0.311 | [4] -0.085 | [5] 0.068 | [6] -0.101 | [8] -0.133 | [9] -0.483

EPC1 (UniProt Q9H2F5)
inactive: [7] -0.186

F13A1 (UniProt P00488)
inactive: [5] -0.046 | [8] -0.277 | [9] 0.256

ETF1 isoform 2 (UniProt P62495)
inactive: [1] -0.019 | [4] 0.177 | [5] 0.057 | [7] -0.281 | [6] -0.04

FAM107B isoform 2 (UniProt Q9H098)
inactive: [2] 0.108

FAM102B (UniProt Q5T8I3)
inactive: [2] 0.092 | [7] -0.036

EVPL (UniProt Q92817)
inactive: [7] 0.113

ERICH1 (UniProt Q86X53)
inactive: [8] 0.041 | [9] -0.137

— the supplement of paper PMC10849652
